Source: PubChem BioAssay (Tox21)
Several values for one entry are separate records, joined by “and”; a condition that tells them apart may be missing. Identical values can stand only once. The source calls these results inconclusive, neither active nor inactive. Unless noted, calls come from the whole dose curve; as a rule, active = well fitted curve in the direction sought with a large enough effect in the repeat runs; inconclusive = weak or mixed curves; inactive = no such curve, though single readings can be large; an effect the other way counts as inactive or inconclusive.

Amino acid sequences for entries named in this document (tags omitted).
UniProt P03372, whole entry: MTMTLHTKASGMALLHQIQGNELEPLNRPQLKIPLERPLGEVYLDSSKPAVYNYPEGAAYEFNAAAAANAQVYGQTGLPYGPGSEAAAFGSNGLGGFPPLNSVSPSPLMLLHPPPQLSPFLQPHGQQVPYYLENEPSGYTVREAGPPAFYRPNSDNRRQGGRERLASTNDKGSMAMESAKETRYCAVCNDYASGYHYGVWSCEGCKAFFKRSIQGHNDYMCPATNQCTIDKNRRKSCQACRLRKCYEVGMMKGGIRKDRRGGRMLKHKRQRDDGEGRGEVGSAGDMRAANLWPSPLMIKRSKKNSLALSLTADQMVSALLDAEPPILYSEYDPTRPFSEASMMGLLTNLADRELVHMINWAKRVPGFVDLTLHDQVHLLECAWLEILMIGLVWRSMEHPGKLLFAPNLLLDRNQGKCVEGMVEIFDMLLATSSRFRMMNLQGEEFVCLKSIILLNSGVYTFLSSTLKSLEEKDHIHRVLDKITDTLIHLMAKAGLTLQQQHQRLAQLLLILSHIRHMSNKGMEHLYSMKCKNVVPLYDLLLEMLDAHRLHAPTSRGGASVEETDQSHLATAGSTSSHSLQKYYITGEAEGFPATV
UniProt P35869, whole entry: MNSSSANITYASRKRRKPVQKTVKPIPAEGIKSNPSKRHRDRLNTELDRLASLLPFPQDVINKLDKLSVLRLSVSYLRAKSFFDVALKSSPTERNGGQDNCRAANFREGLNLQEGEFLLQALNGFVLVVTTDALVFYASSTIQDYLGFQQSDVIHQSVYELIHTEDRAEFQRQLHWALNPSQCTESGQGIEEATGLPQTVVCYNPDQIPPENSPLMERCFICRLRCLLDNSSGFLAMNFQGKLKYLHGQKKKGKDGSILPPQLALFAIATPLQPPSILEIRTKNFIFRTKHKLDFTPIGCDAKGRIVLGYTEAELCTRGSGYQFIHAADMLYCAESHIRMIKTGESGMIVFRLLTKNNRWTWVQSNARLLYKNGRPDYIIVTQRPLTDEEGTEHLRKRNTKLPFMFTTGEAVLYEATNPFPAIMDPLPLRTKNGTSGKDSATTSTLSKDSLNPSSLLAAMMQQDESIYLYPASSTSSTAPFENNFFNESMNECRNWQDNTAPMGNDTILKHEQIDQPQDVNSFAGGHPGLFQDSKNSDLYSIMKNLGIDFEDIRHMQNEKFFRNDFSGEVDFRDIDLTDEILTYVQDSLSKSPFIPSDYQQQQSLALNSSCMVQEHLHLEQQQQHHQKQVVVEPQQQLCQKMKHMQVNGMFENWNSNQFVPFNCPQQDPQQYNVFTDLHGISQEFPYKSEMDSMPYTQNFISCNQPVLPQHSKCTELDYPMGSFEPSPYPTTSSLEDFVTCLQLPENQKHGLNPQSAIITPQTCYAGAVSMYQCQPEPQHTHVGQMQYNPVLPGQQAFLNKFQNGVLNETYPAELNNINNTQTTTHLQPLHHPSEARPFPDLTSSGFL
UniProt P37231, whole entry: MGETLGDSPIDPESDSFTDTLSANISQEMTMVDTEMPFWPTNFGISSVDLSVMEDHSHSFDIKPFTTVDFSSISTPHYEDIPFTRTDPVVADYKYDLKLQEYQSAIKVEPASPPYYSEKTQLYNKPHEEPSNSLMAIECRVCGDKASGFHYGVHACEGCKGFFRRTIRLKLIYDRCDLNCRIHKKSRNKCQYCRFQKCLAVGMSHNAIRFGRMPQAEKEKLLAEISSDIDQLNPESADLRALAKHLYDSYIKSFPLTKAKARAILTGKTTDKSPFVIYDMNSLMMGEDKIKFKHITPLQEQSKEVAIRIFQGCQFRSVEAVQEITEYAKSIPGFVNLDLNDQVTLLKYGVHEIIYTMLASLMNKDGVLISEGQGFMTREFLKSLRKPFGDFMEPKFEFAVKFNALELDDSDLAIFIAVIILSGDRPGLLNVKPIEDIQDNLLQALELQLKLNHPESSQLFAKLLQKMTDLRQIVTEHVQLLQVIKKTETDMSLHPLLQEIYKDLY
UniProt P11473, whole entry: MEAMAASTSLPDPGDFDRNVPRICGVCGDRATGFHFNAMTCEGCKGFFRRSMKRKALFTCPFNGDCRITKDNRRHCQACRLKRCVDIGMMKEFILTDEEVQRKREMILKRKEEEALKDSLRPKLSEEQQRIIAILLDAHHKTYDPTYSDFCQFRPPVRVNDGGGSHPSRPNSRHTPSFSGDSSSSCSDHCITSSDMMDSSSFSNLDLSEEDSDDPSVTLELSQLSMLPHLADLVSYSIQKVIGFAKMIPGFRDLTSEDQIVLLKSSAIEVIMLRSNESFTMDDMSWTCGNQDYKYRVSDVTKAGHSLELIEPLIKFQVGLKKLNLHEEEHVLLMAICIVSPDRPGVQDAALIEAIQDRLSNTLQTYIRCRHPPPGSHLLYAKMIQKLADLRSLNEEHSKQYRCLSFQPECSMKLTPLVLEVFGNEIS
UniProt P11712, whole entry: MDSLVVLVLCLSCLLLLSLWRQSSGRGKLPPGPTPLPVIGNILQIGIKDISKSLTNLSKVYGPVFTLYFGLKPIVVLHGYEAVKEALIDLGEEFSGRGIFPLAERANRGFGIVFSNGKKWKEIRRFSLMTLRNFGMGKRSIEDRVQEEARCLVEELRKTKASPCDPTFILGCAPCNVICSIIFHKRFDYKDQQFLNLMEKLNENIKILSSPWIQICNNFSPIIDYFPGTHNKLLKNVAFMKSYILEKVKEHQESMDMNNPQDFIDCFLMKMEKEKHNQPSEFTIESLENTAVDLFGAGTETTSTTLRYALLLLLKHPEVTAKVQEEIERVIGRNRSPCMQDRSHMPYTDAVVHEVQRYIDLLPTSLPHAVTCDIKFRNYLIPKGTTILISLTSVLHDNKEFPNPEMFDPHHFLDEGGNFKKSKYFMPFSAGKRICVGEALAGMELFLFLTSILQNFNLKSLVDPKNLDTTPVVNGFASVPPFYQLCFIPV
UniProt P05177, whole entry: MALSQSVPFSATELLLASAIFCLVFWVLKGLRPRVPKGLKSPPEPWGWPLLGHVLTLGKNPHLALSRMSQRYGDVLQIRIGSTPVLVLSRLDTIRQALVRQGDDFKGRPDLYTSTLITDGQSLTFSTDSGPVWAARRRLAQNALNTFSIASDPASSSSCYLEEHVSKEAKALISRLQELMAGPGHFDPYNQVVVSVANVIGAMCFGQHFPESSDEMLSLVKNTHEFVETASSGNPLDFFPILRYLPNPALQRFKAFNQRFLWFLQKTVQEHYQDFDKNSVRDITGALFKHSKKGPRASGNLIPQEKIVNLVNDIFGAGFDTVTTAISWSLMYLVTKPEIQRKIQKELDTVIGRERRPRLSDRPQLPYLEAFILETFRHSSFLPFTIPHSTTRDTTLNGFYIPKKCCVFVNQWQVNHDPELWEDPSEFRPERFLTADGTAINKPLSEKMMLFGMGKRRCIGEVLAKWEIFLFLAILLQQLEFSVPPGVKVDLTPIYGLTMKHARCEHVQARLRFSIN
UniProt P22303, whole entry: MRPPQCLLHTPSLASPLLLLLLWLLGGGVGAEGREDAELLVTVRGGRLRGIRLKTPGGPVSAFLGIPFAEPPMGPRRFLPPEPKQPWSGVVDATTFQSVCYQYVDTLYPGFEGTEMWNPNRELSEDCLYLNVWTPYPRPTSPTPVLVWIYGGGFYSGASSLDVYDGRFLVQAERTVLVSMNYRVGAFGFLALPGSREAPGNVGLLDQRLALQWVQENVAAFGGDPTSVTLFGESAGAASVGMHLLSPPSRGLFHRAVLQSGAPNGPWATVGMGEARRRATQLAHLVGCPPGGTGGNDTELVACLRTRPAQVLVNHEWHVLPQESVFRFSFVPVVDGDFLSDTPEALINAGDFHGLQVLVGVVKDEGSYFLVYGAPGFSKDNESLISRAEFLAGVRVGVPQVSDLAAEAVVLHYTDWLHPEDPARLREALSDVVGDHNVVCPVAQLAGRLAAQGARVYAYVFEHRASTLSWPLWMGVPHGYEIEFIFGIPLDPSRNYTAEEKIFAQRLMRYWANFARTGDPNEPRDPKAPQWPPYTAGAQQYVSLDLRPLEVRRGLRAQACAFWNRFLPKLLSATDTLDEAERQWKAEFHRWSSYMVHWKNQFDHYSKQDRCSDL

Experiments:
[1] = molecular target: Estrogen receptor (Homo sapiens) (UniProt P03372); test: qHTS assay to identify small molecule antagonists of the estrogen receptor alpha (ER-alpha) signaling pathway (AID 743069; active = well fitted curve in the direction sought with a large enough effect in the signal ratio in the repeat runs, not every such curve was filed as active; inconclusive = weak or mixed curves, or effect the other way; inactive = no such curve, though single readings can be large or run the other way; the % refers to the signal ratio; note: potency is the fitted concentration of half-maximal effect); details: HEK293 ER-alpha-UAS-bla, beta-lactamase ratio, antagonist mode
In short: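 Estradiol-stimulated ER-alpha-UAS-bla HEK293 cells, 18 hr compound exposure at 37C. LiveBLAzer B/G substrate, 2 hr RT, fluorescence read.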

[2] = molecular target: Aryl hydrocarbon receptor (Homo sapiens) (UniProt P35869); test: qHTS assay to identify small molecule that activate the aryl hydrocarbon receptor (AhR) signaling pathway (AID 743085); details: HepG2 AhR-luc (HG2L7.5c1), luciferase, 24 h; note: potency is the fitted concentration of half-maximal effect; nearly all actives have a fitted effect of over 15% in size
[3] = molecular target: Peroxisome proliferator-activated receptor gamma (Homo sapiens) (UniProt P37231); test: qHTS assay to identify small molecule antagonists of the peroxisome proliferator-activated receptor gamma (PPARg) signaling pathway (AID 743191; calls by dose curve; note: % is set by controls: 0 for no effect and ±100 for the full control effect; nearly all actives have a fitted effect of over 30% in size); details: HEK293H PPARg-UAS-bla, beta-lactamase ratio, antagonist, 17 h; at 62.6 µM (top of the series)
In short: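 GeneBLAzer PPARg UAS-bla HEK293H cells carrying a UAS-driven beta-lactamase reporter were plated at 3000 cells/well, preincubated 5 h at 37C, then given compound for 17 h at 37C; LiveBLAzer B/G FRET substrate was read after 1 h at room temperature.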

[4] = molecular target: Vitamin D3 receptor (Homo sapiens) (UniProt P11473); test: qHTS assay to identify small molecule antagonists of the vitamin D receptor (VDR) signaling pathway (AID 743223; active = well fitted inhibition curve with a large enough effect in the signal ratio in the repeat runs, not every such curve was filed as active; inconclusive = weak or mixed curves, or effect the other way; inactive = no such curve, though single readings can be large or run the other way; the % refers to the signal ratio; note: % is set by controls: 0 for no effect and ±100 for the full control effect); details: VDR-UAS-bla HEK293T, beta-lactamase FRET ratio, 16 h; at 61 µM (top of the series)
In short: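 Antagonist mode: compound added to VDR-bla cells alongside agonist 1alpha,25-dihydroxyvitamin D3 (3 nM final), incubation 16 h at 37C. Read-out is LiveBLAzer FRET fluorescence, 2 h at room temperature.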

[5] = qHTS assay to identify small molecule agonists of the endoplasmic reticulum stress response signaling pathway (AID 1159516; active = well fitted activation curve with a large enough effect in the signal ratio in the repeat runs, not every such curve was filed as active; inconclusive = weak or mixed curves, or effect the other way; the % refers to the signal ratio; note: potency is the fitted concentration of half-maximal effect); details: ESRE-bla HeLa, ER stress beta-lactamase reporter, 5 h
In short: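 An ESRE-bla HeLa cell assay: compounds were pin-transferred from DMSO onto overnight-plated cells and left 5 hr at 37 C. Substrate was then loaded for 2 hr at room temperature before reading fluorescence at 460 nm and 530 nm.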

[6] = qHTS assay to identify small molecule antagonists of the estrogen related receptor (ERR) signaling pathway from Tox21 library - cell viability counter screen (AID 1224834); details: ERR reporter cells viability, CellTiter-Fluor, 17.5 h; note: potency is the fitted concentration of half-maximal effect; nearly all actives have a fitted effect of over 30% in size
In short: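 After 17.5 h of compound exposure at 37 C, ERR cells are incubated with CellTiter-Fluor for 30 min and fluorescence intensity serves as the viability measure.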

[7] = qHTS assay to identify small molecule antagonists of the estrogen related receptor signaling pathway with the pleiotropic PPARgamma coactivator (PGC) from Tox21 10K library (AID 1224841; call rule not given here; note: potency is the fitted concentration of half-maximal effect; actives are mostly falling curves and most rising ones were filed inactive; nearly all actives have a fitted effect of over 50% in size); details: PGC/ERR reporter cell line, ONE-Glo luciferase, 18 h
[8] = qHTS assay to identify small molecule agonists or antagonists of the thyroid stimulating hormone receptor (TSHR) signaling pathway - wild type cell line counter screen (AID 1259384; calls by dose curve; note: potency is the fitted concentration of half-maximal effect); details: HEK293 wild type, cAMP HTRF counter-screen
In short: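 Wild-type HEK293 cells were plated 18 h at 37 C/5% CO2, pin-dosed with compound plus Ro20-1724 medium, held 30 min at room temperature, then given cAMP-d2 and anti-cAMP-cryptate; fluorescence was read after 1 h. Fifteen concentrations, triplicate.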

[9] = molecular target: Cytochrome P450 2C9 (Homo sapiens) (UniProt P11712); test: Cytochrome P450 Family 2 Subfamily C Member 9 (CYP2C9) small molecule antagonists: luciferase reporter qHTS assay (AID 1671198); details: P450-Glo CYP2C9 enzyme assay, luciferin luminescence; note: potency is the fitted concentration of half-maximal effect; nearly all actives have a fitted effect of over 50% in size
In short: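 CYP2C9 activity was measured with a P450-Glo proluciferin substrate. Enzyme–substrate mix was held with compound for 10 min at room temperature, then NADPH regeneration solution was added for 1 h at 37C. Luciferin product was read as luminescence.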

[10] = molecular target: Cytochrome P450 1A2 (Homo sapiens) (UniProt P05177); test: Cytochrome P450 Family 1 Subfamily A Member 2 (CYP1A2) small molecule antagonists: luciferase reporter qHTS assay (AID 1671199); details: P450-Glo CYP1A2 enzyme, luciferin luminescence, 1 h; note: potency is the fitted concentration of half-maximal effect; nearly all actives have a fitted effect of over 50% in size
[11] = qHTS assay to identify small molecule agonists of the endoplasmic reticulum stress response signaling pathway - cell viability counter screen (AID 1159517; calls by dose curve; note: potency is the fitted concentration of half-maximal effect; nearly all actives have a fitted effect of over 50% in size); details: ESRE-bla HeLa viability, CellTiter-Glo luminescence, 5 h
In short: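 CellTiter-Glo was added to wells already read for beta-lactamase FRET, and luminescence was recorded 30 min later. Cells: ESRE-bla HeLa, 1,500 per well, compound exposure 5 hr at 37 C.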

[12] = A CellTox Green Cytotoxicity Assay to monitor cytotoxicity in HepG2 cells - 16 hour (AID 1224876); details: CellTox Green fluorescence; note: potency is the fitted concentration of half-maximal effect; nearly all actives have a fitted effect of over 45% in size
In short: (§1)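 Using 1536-well format, dye-containing HepG2 suspension was seeded, allowed 5 h at 37 C/5% CO2, dosed by pintool with compounds, positive and negative controls, and imaged for fluorescence across 40 h.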

[13] = A CellTox Green Cytotoxicity Assay to monitor cytotoxicity in HepG2 cells - 24 hour (AID 1224878); details: CellTox Green fluorescence; note: potency is the fitted concentration of half-maximal effect; nearly all actives have a fitted effect of over 45% in size
In short: as §1

[14] = A CellTox Green Cytotoxicity Assay to monitor cytotoxicity in HepG2 cells - 0 hour (AID 1224882); details: CellTox Green fluorescence; note: potency is the fitted concentration of half-maximal effect; nearly all actives have a fitted effect of over 35% in size
In short: as §1

[15] = A CellTox Green Cytotoxicity Assay to monitor cytotoxicity in HepG2 cells - 32 hour (AID 1224883); details: CellTox Green fluorescence
In short: as §1

[16] = A CellTox Green Cytotoxicity Assay to monitor cytotoxicity in HepG2 cells - 8 hour (AID 1224890); details: CellTox Green fluorescence; note: potency is the fitted concentration of half-maximal effect; nearly all actives have a fitted effect of over 45% in size
In short: as §1

[17] = qHTS assay to identify small molecule antagonists of the progesterone receptor (PR) signaling pathway - cell viability counter screen (AID 1346798); details: PR-UAS-bla HEK293T viability, CellTiter-Glo luminescence, 16 h
In short: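 Cytotoxicity read as CellTiter-Glo luminescence (30 min, room temperature) in the same wells as the beta-lactamase readout. HEK293T PR-UAS-bla cells in charcoal-stripped 2% FBS received compound and R5020, then 16 h at 37C, 5% CO2.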

[18] = molecular target: Acetylcholinesterase (Homo sapiens) (UniProt P22303); test: Acetylcholinesterase (AChE) small molecule antagonists: enzyme-based qHTS assay (AID 1347397; calls by dose curve; note: potency is the fitted concentration of half-maximal effect; nearly all actives have a fitted effect of over 55% in size); details: AChE enzyme activity inhibition
In short: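 Human recombinant acetylcholinesterase; substrate acetylthiocholine; thiocholine quantified with DTNB (colorimetric). Compound preincubation 30 min RT; reaction 10 min RT.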

[19] = molecular target: Acetylcholinesterase (Homo sapiens) (UniProt P22303); test: Acetylcholinesterase (AChE) small molecule antagonists: fluorescence cell-based qHTS assay (AID 1347398; calls by dose curve); details: SH-SY5Y cells, AChE activity
In short: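 Thiocholine generated from acetylthiocholine by SH-SY5Y cell AChE is detected with Thiolite Green (Ex/Em 490/520 nm) after 40 min at room temperature, following 30 min compound pretreatment at 37 C.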

[20] = A CellTox Green Cytotoxicity Assay to monitor cytotoxicity in HepG2 cells - 40 hour (AID 1224879); details: CellTox Green fluorescence; note: potency is the fitted concentration of half-maximal effect; nearly all actives have a fitted effect of over 40% in size
In short: as §1

ClCCOP(OCCCl)OCCCl
inconclusive: Potency [1] 21.9 µM | Potency [2] 69.1 µM and 77 µM | ratio activity, negative = inhibition [3] 4.53% | activity change, negative = inhibition [4] 9.52% | Potency [5] 55.3 µM | Potency [6] 1.37 µM | Potency [7] 61.6 µM and 61.1 µM | Potency [8] 15.4 µM | Potency [9] 71.5 µM | Potency [10] 63.7 µM

CCC(=O)N(c1ccccc1)C1CCNCC1
inconclusive: Potency [11] 0.477 µM | Potency [12] 26.8 µM | Potency [13] 26.8 µM | Potency [14] 26.8 µM | Potency [15] 30.1 µM | Potency [16] 26.8 µM | Potency [17] 33.5 µM

ClCCNCCCl
inconclusive: Potency [6] 68.6 µM | Potency [7] 19.3 µM

Cc1ccc([N+](=O)[O-])cc1[N+](=O)[O-]
inconclusive: Potency [18] 88.1 µM | Potency [19] 63.3 µM

CCOC(=O)N1CCC(=O)CC1
inconclusive: ratio activity, negative = inhibition [3] 15.5% | Potency [12] 30.1 µM | Potency [13] 30.1 µM | Potency [20] 26.8 µM | Potency [14] 26.8 µM | Potency [15] 26.8 µM | Potency [16] 26.8 µM
